Laboratory results from publication PMC3427372, “Proteomic Analysis Reveals New Cardiac-Specific Dystrophin-Associated Proteins” (PLoS ONE, 2012).

Sequences of proteins named here, by UniProt entry; tags and fusion partners are left off.
UniProt P11531: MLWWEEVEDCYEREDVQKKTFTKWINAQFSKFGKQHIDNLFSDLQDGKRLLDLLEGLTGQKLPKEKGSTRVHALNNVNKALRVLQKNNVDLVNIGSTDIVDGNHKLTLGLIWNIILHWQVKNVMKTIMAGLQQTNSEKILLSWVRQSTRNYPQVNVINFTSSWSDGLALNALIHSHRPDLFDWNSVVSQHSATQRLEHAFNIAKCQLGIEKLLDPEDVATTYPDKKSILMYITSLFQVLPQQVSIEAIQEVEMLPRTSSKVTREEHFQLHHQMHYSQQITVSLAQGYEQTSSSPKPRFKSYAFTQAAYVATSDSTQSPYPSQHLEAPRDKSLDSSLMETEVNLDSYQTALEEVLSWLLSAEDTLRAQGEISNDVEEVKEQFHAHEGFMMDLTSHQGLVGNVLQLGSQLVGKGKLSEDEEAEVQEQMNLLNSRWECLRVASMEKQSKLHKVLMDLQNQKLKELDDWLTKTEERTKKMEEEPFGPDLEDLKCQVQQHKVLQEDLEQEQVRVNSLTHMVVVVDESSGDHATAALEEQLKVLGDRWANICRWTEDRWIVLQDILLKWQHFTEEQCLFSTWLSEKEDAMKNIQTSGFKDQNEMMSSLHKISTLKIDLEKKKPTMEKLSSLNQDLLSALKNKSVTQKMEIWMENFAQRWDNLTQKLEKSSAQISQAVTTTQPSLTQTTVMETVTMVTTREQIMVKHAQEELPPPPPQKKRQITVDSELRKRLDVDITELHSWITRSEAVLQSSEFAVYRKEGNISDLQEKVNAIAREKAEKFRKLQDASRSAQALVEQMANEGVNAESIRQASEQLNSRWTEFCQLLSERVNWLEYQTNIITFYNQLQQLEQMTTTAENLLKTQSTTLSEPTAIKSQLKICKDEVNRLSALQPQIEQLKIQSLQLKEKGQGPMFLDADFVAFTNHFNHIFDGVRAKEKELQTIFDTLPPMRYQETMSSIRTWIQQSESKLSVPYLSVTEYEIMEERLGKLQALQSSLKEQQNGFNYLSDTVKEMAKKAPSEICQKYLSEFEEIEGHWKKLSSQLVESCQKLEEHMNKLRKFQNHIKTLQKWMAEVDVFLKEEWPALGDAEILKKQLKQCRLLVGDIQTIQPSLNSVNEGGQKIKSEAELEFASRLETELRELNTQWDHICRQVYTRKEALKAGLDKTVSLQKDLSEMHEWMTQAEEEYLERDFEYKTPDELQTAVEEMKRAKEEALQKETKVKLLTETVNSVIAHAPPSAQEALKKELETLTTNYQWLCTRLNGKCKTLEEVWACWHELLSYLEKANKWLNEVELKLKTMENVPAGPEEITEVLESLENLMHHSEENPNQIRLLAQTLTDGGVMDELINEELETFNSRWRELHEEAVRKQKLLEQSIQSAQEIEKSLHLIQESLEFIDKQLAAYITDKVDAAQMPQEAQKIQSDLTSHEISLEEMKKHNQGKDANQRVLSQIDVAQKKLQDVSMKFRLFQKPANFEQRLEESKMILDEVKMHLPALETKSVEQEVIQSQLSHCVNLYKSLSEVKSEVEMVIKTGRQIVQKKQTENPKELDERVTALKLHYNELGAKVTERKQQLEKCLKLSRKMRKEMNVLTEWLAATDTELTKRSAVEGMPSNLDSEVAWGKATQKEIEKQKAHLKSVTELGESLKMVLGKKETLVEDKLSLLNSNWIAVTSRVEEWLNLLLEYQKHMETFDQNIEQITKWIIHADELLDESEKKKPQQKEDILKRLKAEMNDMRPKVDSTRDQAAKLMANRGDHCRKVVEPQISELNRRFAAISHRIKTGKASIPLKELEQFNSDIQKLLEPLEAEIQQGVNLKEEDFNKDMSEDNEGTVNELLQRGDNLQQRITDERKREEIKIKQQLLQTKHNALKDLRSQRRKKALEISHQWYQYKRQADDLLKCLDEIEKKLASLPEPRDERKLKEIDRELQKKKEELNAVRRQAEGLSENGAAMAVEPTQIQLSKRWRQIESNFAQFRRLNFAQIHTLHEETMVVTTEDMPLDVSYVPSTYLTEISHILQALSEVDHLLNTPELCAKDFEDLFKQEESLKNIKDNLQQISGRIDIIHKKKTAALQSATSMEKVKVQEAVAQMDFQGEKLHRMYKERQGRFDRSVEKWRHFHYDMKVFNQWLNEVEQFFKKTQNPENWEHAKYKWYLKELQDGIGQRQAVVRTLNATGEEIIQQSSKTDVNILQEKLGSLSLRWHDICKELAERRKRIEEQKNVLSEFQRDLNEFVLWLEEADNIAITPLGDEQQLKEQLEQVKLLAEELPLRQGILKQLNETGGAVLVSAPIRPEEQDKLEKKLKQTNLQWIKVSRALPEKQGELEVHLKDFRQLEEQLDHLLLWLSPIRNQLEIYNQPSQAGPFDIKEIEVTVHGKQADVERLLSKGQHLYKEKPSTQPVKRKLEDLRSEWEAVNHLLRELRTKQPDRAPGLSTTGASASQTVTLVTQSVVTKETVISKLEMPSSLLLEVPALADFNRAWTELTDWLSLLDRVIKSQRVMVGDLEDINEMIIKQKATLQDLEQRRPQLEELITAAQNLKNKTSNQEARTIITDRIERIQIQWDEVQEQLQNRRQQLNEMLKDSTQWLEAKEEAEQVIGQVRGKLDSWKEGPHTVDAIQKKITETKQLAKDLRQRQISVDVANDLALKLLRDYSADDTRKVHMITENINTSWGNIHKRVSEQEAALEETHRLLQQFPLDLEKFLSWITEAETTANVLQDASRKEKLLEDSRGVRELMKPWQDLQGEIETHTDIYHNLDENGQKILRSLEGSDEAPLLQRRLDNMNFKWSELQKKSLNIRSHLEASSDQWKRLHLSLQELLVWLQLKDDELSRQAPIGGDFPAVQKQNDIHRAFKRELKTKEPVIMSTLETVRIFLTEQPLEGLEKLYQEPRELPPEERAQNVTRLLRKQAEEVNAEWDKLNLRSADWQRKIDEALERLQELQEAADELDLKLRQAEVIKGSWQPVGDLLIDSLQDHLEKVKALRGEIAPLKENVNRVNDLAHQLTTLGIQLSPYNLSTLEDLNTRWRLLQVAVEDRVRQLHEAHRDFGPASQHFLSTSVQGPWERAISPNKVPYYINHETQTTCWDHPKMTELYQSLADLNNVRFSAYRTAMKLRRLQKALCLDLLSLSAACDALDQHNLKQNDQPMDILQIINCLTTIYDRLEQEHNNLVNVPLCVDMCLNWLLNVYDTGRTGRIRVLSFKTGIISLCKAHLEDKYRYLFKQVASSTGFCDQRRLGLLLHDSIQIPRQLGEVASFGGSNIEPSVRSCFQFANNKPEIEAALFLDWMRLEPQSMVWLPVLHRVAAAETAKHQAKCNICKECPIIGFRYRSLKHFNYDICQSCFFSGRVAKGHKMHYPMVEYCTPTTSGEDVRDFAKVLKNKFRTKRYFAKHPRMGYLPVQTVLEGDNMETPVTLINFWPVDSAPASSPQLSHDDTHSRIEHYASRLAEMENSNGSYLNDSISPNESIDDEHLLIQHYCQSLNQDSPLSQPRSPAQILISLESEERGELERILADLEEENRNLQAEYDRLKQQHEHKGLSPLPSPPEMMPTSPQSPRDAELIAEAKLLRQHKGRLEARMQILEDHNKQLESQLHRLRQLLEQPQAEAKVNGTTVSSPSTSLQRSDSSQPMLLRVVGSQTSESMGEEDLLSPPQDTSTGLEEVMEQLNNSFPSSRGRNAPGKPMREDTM

Columns and labels:
[1] = target: Dystrophin (mouse (endogenous in cardiac and skeletal muscle)) (UniProt P11531); experiment: affinity purification with mass spectrometry; DYS-IP from wild type mouse skeletal muscle (quadriceps): MANDYS1 anti-dystrophin antibody cross-linked to protein G magnetic beads, 2-5 mg protein extracted in 1% digitonin, 0.05% NP-40, 150 mM NaCl, 50 mM Tris pH 7.4, 3 hr at 4°C; eluate analysed by LC-MS/MS; controls IgG-IP and MDX-IP; 3 biological replicates
[2] = target: Dystrophin (mouse (endogenous in cardiac and skeletal muscle)) (UniProt P11531); experiment: affinity purification with mass spectrometry; DYS-IP from wild type mouse heart (cardiac ventricles): MANDYS1 anti-dystrophin antibody cross-linked to protein G magnetic beads, 2-5 mg protein extracted in 1% digitonin, 0.05% NP-40, 150 mM NaCl, 50 mM Tris pH 7.4, 3 hr at 4°C; eluate analysed by LC-MS/MS; controls IgG-IP and MDX-IP; 3 biological replicates

B1: α1-Syntrophin (protein, UniProt Q61234 1-503)
chain: MASGRRAPRTGLLELRCGAGSGAGGERWQRVLLSLAEDALTVSPADGEPGPEPEPAQLNGAAEPGAAPPQLPEALLLQRRRVTVRKADAGGLGISIKGGRENKMPILISKIFKGLAADQTEALFVGDAILSVNGEDLSSATHDEAVQALKKTGKEVVLEVKYMKEVSPYFKNSAGGTSVGWDSPPASPLQRQPSSPGPQPRNLSEAKHVSLKMAYVSRRCTPTDPEPRYLEICAADGQDAVFLRAKDEASARSWAGAIQAQIGTFIPWVKDELQALLTATGTAGSQDIKQIGWLTEQLPSGGTAPTLALLTEKELLFYCSLPQSREALSRPTRTAPLIATSSAHRLVHSGPSKGSVPYDAELSFALRTGTRHGVDTHLFSVESPQELAAWTRQLVDGCHRAAEGIQEVSTACTWNGRPCSLSVHIDKGFTLWAAEPGAARAMLLRQPFEKLQMSSDDGTSLLFLDFGGAEGEIQLDLHSCPKTMVFIIHSFLSAKVTRLGLLA
B1 was tested. Which binding [1] did it give?
Its binding is “binds”.

What about the binding [2] of the same binder?
The binding was “binds”.

B2: β1-Syntrophin (natural protein, UniProt Q99L88 1-537, looked up)
chain: MAVAAAAVAAPAGGGGARAQRSGLLEVLVRDRWHKVLVNLSEDALVLSCEEGAAAYNGIGAATNGSFCRGSGTGHPVPGVAQAPDSPAGVRTAFTDLPEQVPESISNQKRGVKVLKQELGGLGISIKGGKENKMPILISKIFKGLAADQTQALYVGDAILSVNGADLRDATHDEAVQALKRAGKEVLLEVKYMREATPYVKKGSPVSEIGWETPPPESPRLGGGSAEPLSSQSFSFHRDRKSIPLKMCYVTRNMTLADPENRQLEIHSPDAKHTVILRSKDSATAQAWFSAIHSNAGDLLTRVVADIREQLGKTGIAGSREIRHLGWLAEKVPGESEKQWKPALVVLTEKDLLIYDSMPRRKEAWFSPVHSYPLLATRLVHSGPGKGSPQAGMDLSFATRTGTKQGIETHLFRAEISRDLSHWTRSIVQGCHNSAELTAEITTACTYRNQECRLTIHYDNGFSISTEPQDGAFPKTIIQSPYEKLKMSSDDGIRMLYLDFGGKEGEIQLDLHSCPKPIVFIIHSFLSAKITRLGLVA
notes: β1-syntrophin, mouse; source: endogenous, mouse cardiac ventricle and skeletal muscle (quadriceps) lysate
What does the source list for B2?
binding [1]: binds; binding [2]: binds

No constants are given. Whether binding was seen depends on the method and setting. In cells and extracts the contact can be indirect. Here binding means that the protein was enriched with, or labelled near, the bait; the list need not be complete.
